Laboratory results: PubChem BioAssay AID1224830 (NIAID, 2016)
Shown is one part, drawn at random, of about 18,000 reagents tested. About 2,900 of them (16%) were called active. 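Calls are made per well; low scores hint the gene aids the LPS response, high scores that it dampens it.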 Unmarked entries are inactive. Repeated entries: four replicate wells of each siRNA pool.

Aim: 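Genes whose knock-down alters the TNF-alpha reporter response to LPS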 (primary screen)
System: human THP-1 monocytic leukaemia cells, TNF dual-luciferase reporter clone, PMA-differentiated to macrophage-like cells
Reagents: siRNA pool against human genes, 50 nM
Duration: LPS for 4 h, given about 3 days after siRNA transfection
Conditions: bacterial LPS (TLR4 ligand), 10 ng/ml
Measurement: 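TNF firefly reporter luminescence divided by renilla, normalised to the plate median, then turned into a robust z-score for each replicate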
Scale: TNF reporter robust z-score: higher = stronger TNF reporter response to LPS
Active means: 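Each well counts as active if its z-score is over 2.8 or under -1.5; controls are left without a call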

| Gene | TNF reporter robust z-score |
| --- | --- |
| AGT | -0.16 |
| AGT | -1.07 |
| AGT | -0.71 |
| AGT | -0.85 |
| EZR | -1.11 |
| EZR | 0.67 |
| EZR | -1.09 |
| EZR | 0.06 |
| SEMA3E | 0.3 |
| SEMA3E | -0.27 |
| SEMA3E | -0.2 |
| SEMA3E | -0.32 |
| STX11 | 0.16 |
| STX11 | -0.7 |
| STX11 | 0.03 |
| STX11 | -0.16 |
| SENP2 | -0.78 |
| SENP2 | -0.43 |
| SENP2 | -1.15 |
| SENP2 | 1.03 |
| STAM2 | -0.35 |
| STAM2 | 0.19 |
| STAM2 | -0.03 |
| STAM2 | -0.11 |
| MMP25 | -1.14 |
| MMP25 | -1.05 |
| MMP25 | -1.13 |
| MMP25 | -1.39 |
| CISD2 | 0.56 |
| CISD2 | 0.6 |
| CISD2 | -0.17 |
| CISD2 | 0.19 |
| CPM | -1.08 |
| CPM | -0.81 |
| CPM | 0.7 |
| CPM | 0.96 |
| OR9Q2 | 0.12 |
| OR9Q2 | 0.06 |
| OR9Q2 | -0.73 |
| OR9Q2 | 0.26 |
| OR4A16 | 0 |
| OR4A16 | 0.85 |
| OR4A16 | 0.01 |
| OR4A16 | 0.4 |
| CPLX4 | -0.37 |
| CPLX4 | -0.8 |
| CPLX4 | -0.77 |
| CPLX4 | -1.31 |
| PRICKLE1 | -2.49 (active) |
| PRICKLE1 | -1.1 |
| PRICKLE1 | -1.55 (active) |
| PRICKLE1 | 0.94 |
| ZNF597 | 0.31 |
| ZNF597 | 0.23 |
| ZNF597 | -0.06 |
| ZNF597 | 0.3 |
| SMC4 | -0.09 |
| SMC4 | 0.58 |
| SMC4 | 0.43 |
| SMC4 | 1.48 |
| NFYB | -1.94 (active) |
| NFYB | -1.08 |
| NFYB | -1.54 (active) |
| NFYB | -0.4 |
| ATG9A | -1.13 |
| ATG9A | -0.1 |
| ATG9A | 0.58 |
| ATG9A | 0.72 |
| ASAP3 | -1.29 |
| ASAP3 | -0.77 |
| ASAP3 | -1.28 |
| ASAP3 | -0.62 |
| LINC01565 | -0.76 |
| LINC01565 | -0.6 |
| LINC01565 | 1.7 |
| LINC01565 | 1.51 |

Records listed so far whose target name begins with P or p (4):
| Gene | TNF reporter robust z-score |
| --- | --- |
| PRICKLE1 | -2.49 (active) |
| PRICKLE1 | -1.1 |
| PRICKLE1 | -1.55 (active) |
| PRICKLE1 | 0.94 |
